These are yes or no findings as the source states them, for the method shown. Some entries that bind do so weakly or less than the wild type.
Target: T1, Arabidopsis thaliana TOPLESS (Arabidopsis thaliana) (UniProt Q94AI7)
T1 sequence: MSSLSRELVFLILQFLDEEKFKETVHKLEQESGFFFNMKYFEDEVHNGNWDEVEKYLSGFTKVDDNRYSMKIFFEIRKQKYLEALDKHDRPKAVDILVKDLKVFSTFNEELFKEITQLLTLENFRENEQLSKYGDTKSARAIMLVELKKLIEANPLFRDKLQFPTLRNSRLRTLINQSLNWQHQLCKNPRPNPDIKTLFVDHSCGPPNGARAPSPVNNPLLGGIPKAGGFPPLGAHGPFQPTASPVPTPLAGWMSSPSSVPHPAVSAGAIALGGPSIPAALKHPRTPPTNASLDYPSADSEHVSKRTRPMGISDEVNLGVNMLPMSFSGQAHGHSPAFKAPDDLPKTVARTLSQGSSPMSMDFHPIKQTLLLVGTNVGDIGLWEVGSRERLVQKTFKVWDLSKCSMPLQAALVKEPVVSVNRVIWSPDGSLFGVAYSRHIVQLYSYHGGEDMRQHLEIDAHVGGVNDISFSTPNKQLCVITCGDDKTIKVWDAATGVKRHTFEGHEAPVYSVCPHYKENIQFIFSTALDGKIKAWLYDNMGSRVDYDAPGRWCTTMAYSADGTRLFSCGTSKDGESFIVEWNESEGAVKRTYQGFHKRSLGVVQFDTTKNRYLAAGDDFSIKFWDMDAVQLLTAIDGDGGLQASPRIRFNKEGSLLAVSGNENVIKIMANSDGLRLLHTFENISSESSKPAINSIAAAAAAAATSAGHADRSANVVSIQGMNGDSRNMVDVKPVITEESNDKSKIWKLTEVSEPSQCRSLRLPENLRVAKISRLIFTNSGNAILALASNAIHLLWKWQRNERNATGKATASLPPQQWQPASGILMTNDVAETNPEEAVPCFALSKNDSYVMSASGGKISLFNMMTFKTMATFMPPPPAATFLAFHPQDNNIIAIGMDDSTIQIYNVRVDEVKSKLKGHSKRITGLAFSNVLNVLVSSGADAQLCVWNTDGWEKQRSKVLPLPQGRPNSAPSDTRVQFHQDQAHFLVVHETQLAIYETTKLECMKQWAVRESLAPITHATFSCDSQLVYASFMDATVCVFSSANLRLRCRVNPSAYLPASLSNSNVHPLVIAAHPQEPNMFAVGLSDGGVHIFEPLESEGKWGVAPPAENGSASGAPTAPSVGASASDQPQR
Test: two-hybrid

B1: Arabidopsis thaliana ARF4 (protein, UniProt Q9ZTX9 1-788)
chain: MEFDLNTEIAEVEEEENDDVGVGVGGGTRIDKGRLGISPSSSSSCSSGSSSSSSSTGSASSIYSELWHACAGPLTCLPKKGNVVVYFPQGHLEQDAMVSYSSPLEIPKFDLNPQIVCRVVNVQLLANKDTDEVYTQVTLLPLQEFSMLNGEGKEVKELGGEEERNGSSSVKRTPHMFCKTLTASDTSTHGGFSVPRRAAEDCFAPLDYKQQRPSQELIAKDLHGVEWKFRHIYRGQPRRHLLTTGWSIFVSQKNLVSGDAVLFLRDEGGELRLGIRRAARPRNGLPDSIIEKNSCSNILSLVANAVSTKSMFHVFYSPRATHAEFVIPYEKYITSIRSPVCIGTRFRMRFEMDDSPERRCAGVVTGVCDLDPYRWPNSKWRCLLVRWDESFVSDHQERVSPWEIDPSVSLPHLSIQSSPRPKRPWAGLLDTTPPGNPITKRGGFLDFEESVRPSKVLQGQENIGSASPSQGFDVMNRRILDFAMQSHANPVLVSSRVKDRFGEFVDATGVNPACSGVMDLDRFPRVLQGQEICSLKSFPQFAGFSPAAAPNPFAYQANKSSYYPLALHGIRSTHVPYQNPYNAGNQSSGPPSRAINFGEETRKFDAQNEGGLPNNVTADLPFKIDMMGKQKGSELNMNASSGCKLFGFSLPVETPASKPQSSSKRICTKVHKQGSQVGRAIDLSRLNGYDDLLMELERLFNMEGLLRDPEKGWRILYTDSENDMMVVGDDPWHDFCNVVWKIHLYTKEEVENANDDNKSCLEQAALMMEASKSSSVSQPDSSPTITRV
For B1, the binding was “binds”.
